Source: PubChem BioAssay AID248 (DTP/NCI, 2004)
The list is a part of this screen's results and no random one: it gathers some chemical classes. Other doses and runs of a compound may be missing. T/C is the treated group as % of the vehicle group. For survival time, this PubChem deposit counts one and a half times the control or more as active, and values a quarter to a half above the control carry no call in these data; other NCI protocols may use other cut-offs. Some T/C values are marked as having no survivor count here; that says nothing about deaths at the dose. Schedules are NCI's codes, taken here to give the interval after Q, in days (D) or hours (H), and the number of doses after X. Brackets with × count equal records among those shown. Some doses were run more than once; their values stand side by side, smallest first.

Tested on: L1210 leukemia ip in BDF1 mice, survival T/C
Test: NCI In Vivo Anticancer Drug Screen. Data for tumor model L1210 Leukemia (intraperitoneal) in B6D2F1 (BDF1) mice
Settings: T/C endpoint: mean survival time, higher T/C = longer survival

COc1ccc(N(CCCl)CCCl)cc1
T/C (dose: 3.0 mg/kg/injection, schedule: Q01DX009 (ip), vehicle: saline): 113 % of control [survivor count not shown] | T/C (dose: 5.0 mg/kg/injection, schedule: Q01DX009 (ip), vehicle: saline): 101 % of control [survivor count not shown] | T/C (dose: 7.0 mg/kg/injection, schedule: Q01DX009 (ip), vehicle: saline): 102 % of control [survivor count not shown] | T/C (dose: 8.0 mg/kg/injection, schedule: Q01DX009 (ip), vehicle: saline): 106 % of control [survivor count not shown] | T/C (dose: 12.0 mg/kg/injection, schedule: Q01DX009 (ip), vehicle: saline): 113 % of control [survivor count not shown] | T/C (dose: 14.0 mg/kg/injection, schedule: Q01DX009 (ip), vehicle: saline): 116 % of control [survivor count not shown] | T/C (dose: 18.0 mg/kg/injection, schedule: Q01DX009 (ip), vehicle: acetone): 140 % of control [survivor count not shown] | T/C (dose: 28.0 mg/kg/injection, schedule: Q01DX009 (ip), vehicle: saline): 110 % of control [survivor count not shown] | T/C (dose: 35.0 mg/kg/injection, schedule: Q01DX009 (ip), vehicle: acetone): 128 % of control [survivor count not shown] | T/C (dose: 37.5 mg/kg/injection, schedule: Q01DX001 (ip), vehicle: saline): 115 % of control [survivor count not shown] | T/C (dose: 44.0 mg/kg/injection, schedule: Q01DX001 (ip), vehicle: saline): 109 % of control [survivor count not shown] | T/C (dose: 56.0 mg/kg/injection, schedule: Q01DX009 (ip), vehicle: saline): 127 % of control [survivor count not shown] (2×) | T/C (dose: 66.0 mg/kg/injection, schedule: Q01DX001 (ip), vehicle: saline): 98 % of control [survivor count not shown] | T/C (dose: 75.0 mg/kg/injection, schedule: Q01DX001 (ip), vehicle: saline): 127 % of control [survivor count not shown] | T/C (dose: 100.0 mg/kg/injection, schedule: Q01DX001 (ip), vehicle: saline): 106 % of control [survivor count not shown] | T/C (dose: 113.0 mg/kg/injection, schedule: Q01DX009 (ip), vehicle: saline): 135 % of control [survivor count not shown] | T/C (dose: 150.0 mg/kg/injection, schedule: Q01DX001 (ip), vehicle: saline): 117 [survivor count not shown] and 152 % of control [survivor count not shown] | T/C (dose: 225.0 mg/kg/injection, schedule: Q01DX001 (ip), vehicle: saline): 117 [survivor count not shown] and 132 % of control [survivor count not shown] | T/C (dose: 225.0 mg/kg/injection, schedule: Q01DX009 (ip), vehicle: saline): 118 % of control [survivor count not shown] | T/C (dose: 335.0 mg/kg/injection, schedule: Q01DX001 (ip), vehicle: saline): 93 % of control [survivor count not shown] | T/C (dose: 450.0 mg/kg/injection, schedule: Q01DX009 (ip), vehicle: saline): 91 % of control [survivor count not shown] | T/C (dose: 500.0 mg/kg/injection, schedule: Q01DX001 (ip), vehicle: saline): 96 % of control [survivor count not shown]

ClCCN(CCCl)c1ccc(C=C2C=CC=C2)cc1
T/C (dose: 88.8 mg/kg/injection, schedule: Q01DX001 (ip), vehicle: carboxymethylcellulose (CMC)): 90 [survivor count not shown] and 93 % of control [survivor count not shown] | T/C (dose: 100.0 mg/kg/injection, schedule: Q01DX001 (ip), vehicle: carboxymethylcellulose (CMC)): 94 % of control [survivor count not shown] | T/C (dose: 133.4 mg/kg/injection, schedule: Q01DX001 (ip), vehicle: carboxymethylcellulose (CMC)): 95 [survivor count not shown] and 98 % of control [survivor count not shown] | T/C (dose: 200.0 mg/kg/injection, schedule: Q01DX001 (ip), vehicle: carboxymethylcellulose (CMC)): 90 [survivor count not shown], 104 [survivor count not shown], 153 % of control [survivor count not shown] | T/C (dose: 300.0 mg/kg/injection, schedule: Q01DX001 (ip), vehicle: carboxymethylcellulose (CMC)): 93 [survivor count not shown] and 102 % of control [survivor count not shown] | T/C (dose: 400.0 mg/kg/injection, schedule: Q01DX001 (ip), vehicle: carboxymethylcellulose (CMC)): 94 % of control [survivor count not shown]
